Binding data for five substances are collected here from article PMC9166893.

Chains of the proteins cited; added tags and fusions are not shown.
UniProt P68400: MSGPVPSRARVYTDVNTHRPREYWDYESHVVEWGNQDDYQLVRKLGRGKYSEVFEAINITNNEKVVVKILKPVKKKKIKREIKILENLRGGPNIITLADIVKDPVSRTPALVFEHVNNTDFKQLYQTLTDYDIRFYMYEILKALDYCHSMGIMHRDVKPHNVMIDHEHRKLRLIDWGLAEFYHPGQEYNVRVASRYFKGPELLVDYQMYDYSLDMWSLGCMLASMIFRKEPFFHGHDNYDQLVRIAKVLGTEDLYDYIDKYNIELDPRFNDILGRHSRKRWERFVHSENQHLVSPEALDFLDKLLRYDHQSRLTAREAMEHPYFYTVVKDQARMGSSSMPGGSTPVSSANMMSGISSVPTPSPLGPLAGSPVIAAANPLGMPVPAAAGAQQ
UniProt P19139: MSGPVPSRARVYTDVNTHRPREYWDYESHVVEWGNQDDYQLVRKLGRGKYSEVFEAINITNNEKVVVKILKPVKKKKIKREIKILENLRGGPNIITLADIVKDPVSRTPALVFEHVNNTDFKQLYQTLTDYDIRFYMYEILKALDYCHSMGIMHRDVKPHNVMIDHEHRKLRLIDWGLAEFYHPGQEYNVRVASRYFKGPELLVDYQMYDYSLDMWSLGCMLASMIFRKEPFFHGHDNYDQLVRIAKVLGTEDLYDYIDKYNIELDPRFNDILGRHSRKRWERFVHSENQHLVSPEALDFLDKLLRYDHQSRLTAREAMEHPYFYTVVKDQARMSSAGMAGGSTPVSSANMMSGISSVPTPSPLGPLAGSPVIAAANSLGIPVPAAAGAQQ
UniProt Q9HAW4: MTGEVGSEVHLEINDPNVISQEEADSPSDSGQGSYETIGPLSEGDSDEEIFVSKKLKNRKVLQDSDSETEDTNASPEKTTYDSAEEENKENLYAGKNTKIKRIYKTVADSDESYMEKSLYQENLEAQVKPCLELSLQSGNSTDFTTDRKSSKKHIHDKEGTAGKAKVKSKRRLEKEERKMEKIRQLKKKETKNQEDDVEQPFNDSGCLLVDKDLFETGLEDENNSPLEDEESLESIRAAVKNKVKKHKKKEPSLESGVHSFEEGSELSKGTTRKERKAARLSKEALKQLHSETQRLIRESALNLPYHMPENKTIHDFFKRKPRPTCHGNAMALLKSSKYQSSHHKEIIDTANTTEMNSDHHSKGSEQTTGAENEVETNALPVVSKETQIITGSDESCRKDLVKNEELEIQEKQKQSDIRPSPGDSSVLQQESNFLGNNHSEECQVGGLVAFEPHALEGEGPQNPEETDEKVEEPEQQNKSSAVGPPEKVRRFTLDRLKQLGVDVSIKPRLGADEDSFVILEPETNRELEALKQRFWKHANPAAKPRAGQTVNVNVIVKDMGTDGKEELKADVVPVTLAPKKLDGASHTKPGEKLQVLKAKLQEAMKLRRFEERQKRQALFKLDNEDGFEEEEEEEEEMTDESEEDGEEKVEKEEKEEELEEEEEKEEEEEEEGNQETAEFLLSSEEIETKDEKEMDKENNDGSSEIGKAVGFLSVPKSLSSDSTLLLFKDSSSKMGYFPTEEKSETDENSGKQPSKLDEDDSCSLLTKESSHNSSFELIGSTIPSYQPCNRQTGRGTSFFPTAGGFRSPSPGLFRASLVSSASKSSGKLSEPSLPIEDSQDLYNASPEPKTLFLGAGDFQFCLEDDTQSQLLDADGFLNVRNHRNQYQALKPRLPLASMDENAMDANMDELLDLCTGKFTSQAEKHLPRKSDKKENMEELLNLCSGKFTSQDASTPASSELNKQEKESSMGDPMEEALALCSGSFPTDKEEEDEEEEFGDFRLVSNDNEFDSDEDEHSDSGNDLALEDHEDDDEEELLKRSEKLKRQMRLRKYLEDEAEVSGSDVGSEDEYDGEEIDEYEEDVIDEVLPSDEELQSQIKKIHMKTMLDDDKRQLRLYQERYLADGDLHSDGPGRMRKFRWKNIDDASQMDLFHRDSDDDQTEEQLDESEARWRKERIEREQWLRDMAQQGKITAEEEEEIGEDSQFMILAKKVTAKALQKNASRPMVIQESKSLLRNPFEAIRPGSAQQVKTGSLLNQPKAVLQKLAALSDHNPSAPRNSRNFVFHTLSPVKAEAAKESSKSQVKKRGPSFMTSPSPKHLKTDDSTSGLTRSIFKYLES
UniProt Q13535: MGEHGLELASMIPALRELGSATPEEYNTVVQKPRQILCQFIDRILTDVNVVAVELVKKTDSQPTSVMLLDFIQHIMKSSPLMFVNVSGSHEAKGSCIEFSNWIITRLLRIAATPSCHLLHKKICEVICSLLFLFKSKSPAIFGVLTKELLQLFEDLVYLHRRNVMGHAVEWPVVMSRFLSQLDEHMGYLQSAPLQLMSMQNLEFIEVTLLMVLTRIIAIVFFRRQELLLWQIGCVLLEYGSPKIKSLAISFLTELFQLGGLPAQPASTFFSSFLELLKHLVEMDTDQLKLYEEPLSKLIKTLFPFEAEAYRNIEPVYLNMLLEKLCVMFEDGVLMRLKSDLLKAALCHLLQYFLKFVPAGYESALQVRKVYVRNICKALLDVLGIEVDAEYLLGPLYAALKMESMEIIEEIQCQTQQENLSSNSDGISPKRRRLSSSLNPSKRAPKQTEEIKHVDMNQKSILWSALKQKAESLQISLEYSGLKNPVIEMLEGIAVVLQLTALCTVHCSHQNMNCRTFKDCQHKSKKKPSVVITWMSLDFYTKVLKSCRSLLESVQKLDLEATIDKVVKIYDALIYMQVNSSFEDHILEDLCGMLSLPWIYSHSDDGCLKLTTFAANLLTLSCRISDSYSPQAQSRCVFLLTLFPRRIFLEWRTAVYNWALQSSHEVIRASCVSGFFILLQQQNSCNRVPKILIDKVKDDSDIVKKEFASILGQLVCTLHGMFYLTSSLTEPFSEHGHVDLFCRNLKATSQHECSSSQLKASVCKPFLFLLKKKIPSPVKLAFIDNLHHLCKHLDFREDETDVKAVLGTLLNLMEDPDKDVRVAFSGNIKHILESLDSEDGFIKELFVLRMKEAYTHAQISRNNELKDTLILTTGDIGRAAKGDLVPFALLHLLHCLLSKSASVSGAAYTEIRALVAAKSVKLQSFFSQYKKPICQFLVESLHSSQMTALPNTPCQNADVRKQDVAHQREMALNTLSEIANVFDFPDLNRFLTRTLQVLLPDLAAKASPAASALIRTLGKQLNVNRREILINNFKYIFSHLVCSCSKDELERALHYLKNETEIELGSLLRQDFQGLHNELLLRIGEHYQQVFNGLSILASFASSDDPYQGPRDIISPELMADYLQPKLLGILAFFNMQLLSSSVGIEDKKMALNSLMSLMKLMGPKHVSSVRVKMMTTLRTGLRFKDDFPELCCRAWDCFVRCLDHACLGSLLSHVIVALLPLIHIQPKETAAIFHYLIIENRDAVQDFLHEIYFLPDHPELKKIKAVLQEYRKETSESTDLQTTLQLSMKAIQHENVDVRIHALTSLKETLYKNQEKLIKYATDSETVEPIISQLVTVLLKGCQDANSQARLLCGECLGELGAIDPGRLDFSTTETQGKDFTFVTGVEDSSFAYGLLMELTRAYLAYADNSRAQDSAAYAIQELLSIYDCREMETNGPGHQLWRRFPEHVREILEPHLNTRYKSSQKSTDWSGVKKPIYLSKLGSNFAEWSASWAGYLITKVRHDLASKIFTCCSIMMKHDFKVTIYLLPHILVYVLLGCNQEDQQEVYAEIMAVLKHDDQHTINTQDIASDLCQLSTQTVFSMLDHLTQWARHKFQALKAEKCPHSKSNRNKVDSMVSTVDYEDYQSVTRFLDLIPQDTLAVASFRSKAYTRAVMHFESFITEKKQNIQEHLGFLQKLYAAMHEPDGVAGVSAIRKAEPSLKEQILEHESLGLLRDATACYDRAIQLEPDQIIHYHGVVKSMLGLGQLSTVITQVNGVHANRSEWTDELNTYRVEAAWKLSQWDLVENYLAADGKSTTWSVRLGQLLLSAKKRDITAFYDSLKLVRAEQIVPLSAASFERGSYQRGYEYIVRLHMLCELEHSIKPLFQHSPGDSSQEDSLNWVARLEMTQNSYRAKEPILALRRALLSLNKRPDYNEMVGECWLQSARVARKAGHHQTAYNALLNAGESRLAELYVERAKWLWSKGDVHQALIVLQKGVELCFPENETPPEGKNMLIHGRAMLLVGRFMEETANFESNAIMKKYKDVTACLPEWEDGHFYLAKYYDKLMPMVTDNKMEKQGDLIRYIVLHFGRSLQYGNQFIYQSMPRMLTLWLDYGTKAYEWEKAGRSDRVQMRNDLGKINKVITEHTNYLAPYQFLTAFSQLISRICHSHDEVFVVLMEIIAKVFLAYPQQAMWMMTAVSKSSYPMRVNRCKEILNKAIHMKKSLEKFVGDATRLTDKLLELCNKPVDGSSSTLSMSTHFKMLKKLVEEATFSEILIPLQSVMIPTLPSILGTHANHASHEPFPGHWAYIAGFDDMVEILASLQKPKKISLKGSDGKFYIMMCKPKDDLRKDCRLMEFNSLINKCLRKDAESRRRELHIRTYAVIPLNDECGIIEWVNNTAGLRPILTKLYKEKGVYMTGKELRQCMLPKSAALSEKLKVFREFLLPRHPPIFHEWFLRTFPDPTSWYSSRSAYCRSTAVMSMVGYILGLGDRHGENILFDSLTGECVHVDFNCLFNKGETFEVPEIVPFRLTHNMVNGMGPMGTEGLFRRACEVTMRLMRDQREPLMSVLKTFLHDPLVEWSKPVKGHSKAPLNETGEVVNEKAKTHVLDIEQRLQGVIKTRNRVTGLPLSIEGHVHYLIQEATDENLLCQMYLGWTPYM

Experiment [1] has as its target protein kinase CK2α, endogenous in human U2OS cells (human (endogenous in U2OS)) (UniProt P68400). In words: co-IP; whole cell lysate of U2OS cells, immunoprecipitation with anti-CK2α antibodies as in Fig. 5H, Western blot.
The target of the next experiment is T1, HA-CHK1 (UniProt O14757).
T1 sequence: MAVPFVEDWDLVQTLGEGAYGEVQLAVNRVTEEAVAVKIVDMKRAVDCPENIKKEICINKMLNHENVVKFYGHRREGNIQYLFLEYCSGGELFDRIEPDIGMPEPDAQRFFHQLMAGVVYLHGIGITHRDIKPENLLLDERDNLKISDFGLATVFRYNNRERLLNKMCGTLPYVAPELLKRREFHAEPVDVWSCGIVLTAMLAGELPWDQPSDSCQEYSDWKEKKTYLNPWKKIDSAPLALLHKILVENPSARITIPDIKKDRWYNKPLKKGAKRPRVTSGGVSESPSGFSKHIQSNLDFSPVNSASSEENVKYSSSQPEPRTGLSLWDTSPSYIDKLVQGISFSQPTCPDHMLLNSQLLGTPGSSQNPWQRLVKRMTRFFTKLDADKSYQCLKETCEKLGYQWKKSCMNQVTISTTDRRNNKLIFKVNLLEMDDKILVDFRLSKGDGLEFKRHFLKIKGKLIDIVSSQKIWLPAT
In words: co-IP; whole cell lysate of H9c2-CK2α-44 cells co-transfected with FLAG-CLSPN and HA-CHK1, immunoprecipitation with rabbit monoclonal anti-HA, Western blot; with or without Dox, with or without HU for 4 h. On the technique in general: In western blotting, separated proteins are transferred to a membrane and probed.

The target of experiment [2] is protein kinase CK2α, endogenous in rat H9c2-CK2α-44 myoblasts (rat (endogenous in H9c2)) (UniProt P19139). In words: co-IP; whole cell lysate of control H9c2-CK2α-44 cells, immunoprecipitation with rabbit polyclonal anti-CK2α serum or goat anti-CK2α antibody, Western blot.
Experiment [3] has as its target CLASPIN (CLSPN), endogenous in human U2OS cells (human (endogenous in U2OS)) (UniProt Q9HAW4). In words: co-IP; whole cell lysate of U2OS cells, immunoprecipitation with anti-CLSPN, Western blot; cells with or without CK2α-siRNA (56 h) and 3 mM HU for 4 h.
For experiment [4], the target named is T2, CDC45, endogenous in human U2OS cells (human (endogenous in U2OS)) (UniProt O75419).
T2 sequence: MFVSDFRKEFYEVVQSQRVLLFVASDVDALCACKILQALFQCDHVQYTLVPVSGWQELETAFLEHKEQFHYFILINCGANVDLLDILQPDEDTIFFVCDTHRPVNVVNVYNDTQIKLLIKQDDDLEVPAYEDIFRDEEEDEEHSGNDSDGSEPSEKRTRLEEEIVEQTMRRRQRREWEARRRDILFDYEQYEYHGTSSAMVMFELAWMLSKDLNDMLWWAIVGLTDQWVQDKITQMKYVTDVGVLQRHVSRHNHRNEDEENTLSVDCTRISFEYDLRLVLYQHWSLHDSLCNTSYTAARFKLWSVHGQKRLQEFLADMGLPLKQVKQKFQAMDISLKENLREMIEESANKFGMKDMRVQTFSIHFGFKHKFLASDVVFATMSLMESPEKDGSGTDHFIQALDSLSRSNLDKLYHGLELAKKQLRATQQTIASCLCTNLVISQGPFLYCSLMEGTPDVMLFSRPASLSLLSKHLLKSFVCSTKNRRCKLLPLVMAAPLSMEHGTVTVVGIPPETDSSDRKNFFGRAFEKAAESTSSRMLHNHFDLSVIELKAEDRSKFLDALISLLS
In words: co-IP; whole cell lysate of U2OS cells, immunoprecipitation with anti-CDC45, Western blot; cells with or without CK2α-siRNA (56 h) and 3 mM HU for 4 h.

These are yes or no findings as the source states them, for the method shown. In cells and extracts the contact can be indirect. Some binding calls cover weakened binding; strength is not graded here. For part of these data: Sequences can lack the tags named with a protein.

For the substance “ATR, endogenous in human U2OS cells (from UniProt Q13535 1-2644) (enzyme)”, in experiment [1], the binding result is listed as “no binding”.

For “CLASPIN (CLSPN), endogenous in human U2OS cells (from UniProt Q9HAW4 1-1339)”, the binding result in experiment [1] was “binds”.

As for FLAG-CLSPN (from UniProt Q9HAW4 1-1339), the binding result with HA-CHK1 is given as “binds”.

In the case of “ataxia telangiectasia mutated and Rad3-related kinase (ATR), endogenous in rat H9c2-CK2α-44 myoblasts (from UniProt D3Z822 1-2636) (enzyme)”, the binding result in experiment [2] is recorded as “no binding”.

In the case of “protein kinase CK2α, endogenous in human U2OS cells (from UniProt P68400 1-391) (enzyme)”, the binding entry in experiment [3] and in experiment [4] was “binds” each time.
